Test results taken from US11311625B2 (priority 2015, dated 2022).
HELM strings list residues between dots; [ac] is acetyl, [am] amide, other brackets name non-standard units.

Test: general procedure: Fmoc solid-phase peptide synthesis; Rink amide MBHA resin (substitution level 0.56 mmol/g); PyBroP/DIEA in NMP
Details: whole synthesis, scale of the general procedure 1 g resin (0.56 mmol/g)

| Substance | final LC-MS purity | isolated yield |
| --- | --- | --- |
| PEPTIDE1{[ABT751-CO].[GABA].[dF].C.F.W.[dW].K.T.F.[GlyS2].[am]}$PEPTIDE1,PEPTIDE1,4:R3-11:R3$$$V2.0 | 93% | 41% |
| PEPTIDE1{[COMB-CO].[GABA].[dF].C.F.W.[dW].K.T.F.[GlyS2].[am]}$PEPTIDE1,PEPTIDE1,4:R3-11:R3$$$V2.0 | 95% | 38% |
| PEPTIDE1{[AMGlut].[GABA].[dF].C.F.W.[dW].K.T.F.[GlyS2].[am]}$PEPTIDE1,PEPTIDE1,4:R3-11:R3$$$V2.0 | 96% | 48% |
| PEPTIDE1{[CPT-CO].[GABA].[dF].C.F.W.[dW].K.T.F.[GlyS2].[am]}$PEPTIDE1,PEPTIDE1,4:R3-11:R3$$$V2.0 | 95% | 42% |
